# Assay results reported in PMC8505401.
# Protein sequences, listed by entry. Tags and fused reporters are not part of them. Residues count along the entry.
# UniProt P07996, residues 19-1170: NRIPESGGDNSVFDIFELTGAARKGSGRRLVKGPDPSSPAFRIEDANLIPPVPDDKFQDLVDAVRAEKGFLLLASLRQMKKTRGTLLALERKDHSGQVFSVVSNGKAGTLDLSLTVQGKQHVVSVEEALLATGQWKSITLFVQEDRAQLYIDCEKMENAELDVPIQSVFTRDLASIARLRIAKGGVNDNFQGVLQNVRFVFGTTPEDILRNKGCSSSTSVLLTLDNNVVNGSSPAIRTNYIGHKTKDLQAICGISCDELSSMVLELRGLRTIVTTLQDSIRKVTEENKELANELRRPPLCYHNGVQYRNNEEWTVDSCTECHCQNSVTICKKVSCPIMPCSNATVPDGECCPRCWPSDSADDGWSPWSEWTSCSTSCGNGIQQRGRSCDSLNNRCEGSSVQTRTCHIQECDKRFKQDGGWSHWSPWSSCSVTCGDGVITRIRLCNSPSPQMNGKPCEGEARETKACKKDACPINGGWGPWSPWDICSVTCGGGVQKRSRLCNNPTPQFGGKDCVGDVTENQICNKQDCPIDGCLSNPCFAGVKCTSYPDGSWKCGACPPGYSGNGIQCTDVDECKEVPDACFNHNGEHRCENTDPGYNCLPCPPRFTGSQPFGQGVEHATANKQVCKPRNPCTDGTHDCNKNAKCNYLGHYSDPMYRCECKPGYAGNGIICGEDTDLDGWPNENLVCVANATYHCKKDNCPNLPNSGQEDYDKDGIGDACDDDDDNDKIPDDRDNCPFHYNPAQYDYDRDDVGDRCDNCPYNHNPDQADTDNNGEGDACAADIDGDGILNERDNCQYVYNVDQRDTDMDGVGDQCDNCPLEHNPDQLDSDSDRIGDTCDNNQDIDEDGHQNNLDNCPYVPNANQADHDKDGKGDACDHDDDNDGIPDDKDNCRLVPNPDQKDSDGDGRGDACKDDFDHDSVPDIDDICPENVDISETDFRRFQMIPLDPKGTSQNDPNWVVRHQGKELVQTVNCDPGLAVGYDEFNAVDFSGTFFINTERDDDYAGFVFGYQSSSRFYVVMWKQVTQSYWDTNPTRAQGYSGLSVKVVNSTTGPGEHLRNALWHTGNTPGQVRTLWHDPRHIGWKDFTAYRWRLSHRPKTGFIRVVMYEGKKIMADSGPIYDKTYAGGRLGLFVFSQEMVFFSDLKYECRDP
# UniProt P35579: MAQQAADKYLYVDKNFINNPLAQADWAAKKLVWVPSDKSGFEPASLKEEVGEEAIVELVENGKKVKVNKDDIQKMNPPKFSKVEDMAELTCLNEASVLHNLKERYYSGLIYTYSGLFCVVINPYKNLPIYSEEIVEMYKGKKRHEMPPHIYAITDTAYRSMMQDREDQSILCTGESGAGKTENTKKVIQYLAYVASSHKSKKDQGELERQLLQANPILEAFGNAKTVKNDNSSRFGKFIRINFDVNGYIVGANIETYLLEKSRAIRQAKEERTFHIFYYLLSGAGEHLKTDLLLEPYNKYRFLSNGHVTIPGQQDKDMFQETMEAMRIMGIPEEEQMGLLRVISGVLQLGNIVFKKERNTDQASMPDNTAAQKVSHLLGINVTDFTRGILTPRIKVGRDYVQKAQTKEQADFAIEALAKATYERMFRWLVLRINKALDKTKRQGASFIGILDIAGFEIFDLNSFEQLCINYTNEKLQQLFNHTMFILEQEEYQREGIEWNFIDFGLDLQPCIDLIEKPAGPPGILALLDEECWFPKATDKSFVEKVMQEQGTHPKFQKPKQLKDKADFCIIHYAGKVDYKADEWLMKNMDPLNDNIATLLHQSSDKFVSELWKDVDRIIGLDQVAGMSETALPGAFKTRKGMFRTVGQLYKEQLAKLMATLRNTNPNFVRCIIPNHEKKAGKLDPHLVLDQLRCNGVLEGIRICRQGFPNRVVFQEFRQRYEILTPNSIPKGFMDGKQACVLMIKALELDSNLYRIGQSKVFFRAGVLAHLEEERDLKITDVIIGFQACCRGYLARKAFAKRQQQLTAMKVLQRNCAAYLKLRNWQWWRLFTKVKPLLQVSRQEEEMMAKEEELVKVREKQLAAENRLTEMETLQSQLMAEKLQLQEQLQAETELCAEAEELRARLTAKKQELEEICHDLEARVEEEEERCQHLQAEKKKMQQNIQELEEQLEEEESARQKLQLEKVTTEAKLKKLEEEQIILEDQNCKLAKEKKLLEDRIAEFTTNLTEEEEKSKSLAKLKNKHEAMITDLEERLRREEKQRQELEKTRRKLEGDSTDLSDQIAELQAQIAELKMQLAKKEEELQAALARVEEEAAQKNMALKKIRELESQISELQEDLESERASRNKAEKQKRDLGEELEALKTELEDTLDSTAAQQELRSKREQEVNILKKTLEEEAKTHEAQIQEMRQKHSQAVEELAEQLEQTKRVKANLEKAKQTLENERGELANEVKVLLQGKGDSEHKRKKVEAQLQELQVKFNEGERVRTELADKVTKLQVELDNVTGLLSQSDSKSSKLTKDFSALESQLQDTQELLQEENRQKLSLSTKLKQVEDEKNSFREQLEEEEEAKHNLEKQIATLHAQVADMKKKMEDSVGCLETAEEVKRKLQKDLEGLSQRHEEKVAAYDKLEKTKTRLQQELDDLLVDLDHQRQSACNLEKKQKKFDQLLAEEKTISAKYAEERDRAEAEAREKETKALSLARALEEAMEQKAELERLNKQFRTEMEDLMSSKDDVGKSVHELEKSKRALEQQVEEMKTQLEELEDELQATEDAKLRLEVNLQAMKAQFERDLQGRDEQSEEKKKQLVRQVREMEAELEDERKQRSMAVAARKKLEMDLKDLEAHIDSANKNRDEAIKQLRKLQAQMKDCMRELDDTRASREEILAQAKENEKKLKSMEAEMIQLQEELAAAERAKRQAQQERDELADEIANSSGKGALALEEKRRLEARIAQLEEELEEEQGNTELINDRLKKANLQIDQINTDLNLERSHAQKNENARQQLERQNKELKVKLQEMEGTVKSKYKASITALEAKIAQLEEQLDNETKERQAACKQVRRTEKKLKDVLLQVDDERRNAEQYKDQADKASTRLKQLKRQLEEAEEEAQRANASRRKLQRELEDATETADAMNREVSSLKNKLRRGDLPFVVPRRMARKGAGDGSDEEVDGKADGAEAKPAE
# Results are given in words; binding and its absence hold for the method and conditions named. In cells and extracts the contact can be indirect. Here binding means that the protein was enriched with, or labelled near, the bait; the list need not be complete.
# Target: Thrombospondin 1 (human (endogenous in N14042)) (UniProt P07996)
# Experiment: affinity purification with mass spectrometry; immunoprecipitation of THBS1 from glioma cells followed by mass spectrometry; no further conditions given
substance,measurement,value
Myosin heavy chain 9 (from UniProt P35579 1-1960),binding,binds
